Experiment [1] deals with T1, Semaphorin 3D (Sema3D), endogenous in mouse KPC pancreatic ductal adenocarcinoma cells (mouse) (UniProt Q8BH34).
T1 sequence (looked up): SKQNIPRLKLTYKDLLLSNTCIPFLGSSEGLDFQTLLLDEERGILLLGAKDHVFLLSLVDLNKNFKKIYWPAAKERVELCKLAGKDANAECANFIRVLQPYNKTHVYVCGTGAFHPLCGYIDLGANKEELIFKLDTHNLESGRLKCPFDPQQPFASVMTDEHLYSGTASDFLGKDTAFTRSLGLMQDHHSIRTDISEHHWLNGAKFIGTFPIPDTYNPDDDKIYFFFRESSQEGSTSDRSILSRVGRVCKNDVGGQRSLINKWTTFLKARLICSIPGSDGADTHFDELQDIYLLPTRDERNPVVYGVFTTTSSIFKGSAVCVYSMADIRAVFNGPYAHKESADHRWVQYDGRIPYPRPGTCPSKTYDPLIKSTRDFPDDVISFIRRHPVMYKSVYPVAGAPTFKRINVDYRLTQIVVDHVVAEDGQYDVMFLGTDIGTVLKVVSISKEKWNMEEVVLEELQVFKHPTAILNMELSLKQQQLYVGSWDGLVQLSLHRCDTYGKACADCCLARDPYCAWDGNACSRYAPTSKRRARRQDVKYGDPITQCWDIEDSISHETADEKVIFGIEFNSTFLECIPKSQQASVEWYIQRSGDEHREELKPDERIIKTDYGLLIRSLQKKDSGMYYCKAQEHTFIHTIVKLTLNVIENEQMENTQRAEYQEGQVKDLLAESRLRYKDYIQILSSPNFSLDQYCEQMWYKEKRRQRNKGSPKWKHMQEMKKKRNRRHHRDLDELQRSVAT
The experiment is described as follows: coimmunoprecipitation with cross-linked AnxA2 antibodies from KPC cell lysate, Western blot. (Immunoblotting shows a protein as a band on a membrane.)

The chains behind the UniProt entries cited, without tags or fusion partners. Residues count along the entry.
UniProt P07356, residues 2-339: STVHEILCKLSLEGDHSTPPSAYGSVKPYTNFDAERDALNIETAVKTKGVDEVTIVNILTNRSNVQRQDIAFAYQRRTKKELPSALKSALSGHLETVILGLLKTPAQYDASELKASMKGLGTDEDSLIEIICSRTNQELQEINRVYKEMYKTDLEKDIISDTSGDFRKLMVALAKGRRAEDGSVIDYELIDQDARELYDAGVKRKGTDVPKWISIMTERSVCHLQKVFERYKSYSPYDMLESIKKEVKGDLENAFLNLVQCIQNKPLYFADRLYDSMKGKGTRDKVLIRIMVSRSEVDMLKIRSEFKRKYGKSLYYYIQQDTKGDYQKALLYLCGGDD

Experiment [2] has as its target neuropilin 1 (NP-1), endogenous in mouse KPC PDA cells (mouse) (UniProt P97333). The experiment is described as follows: coimmunoprecipitation from KPC cell lysate, Western blot (FIG. 14).
Experiment [3] shares this target. The experiment is described as follows: coimmunoprecipitation with anti-Sema3D antibodies from KPC cell lysate, Western blot.

Results are given in words; binding and its absence hold for the method and conditions named. In cells and extracts the contact can be indirect. Some binding calls cover weakened binding; strength is not graded here.

With “annexin A2 (AnxA2), endogenous in mouse KPC pancreatic ductal adenocarcinoma cells (from UniProt P07356 2-339)”, in experiment [1], the binding entry was “binds”.

B1: Semaphorin 3D (Sema3D), endogenous in mouse KPC pancreatic ductal adenocarcinoma cells (ligand, UniProt Q8BH34 38-777, looked up)
chain: T1 sequence (looked up)
As for B1, the binding result in experiment [2] and in experiment [3] was “binds” in each case.

Values taken from US20190316124A1.
